From patent US7199218B1, “ICBP90 polypeptide and its fragments and polynucleotides coding for said polypeptides and applications for diagnosing and treating cancer” (Institut National de la Sante et de la Recherche Medicale …, priority 1999, dated 2007)
These are yes or no findings as the source states them, for the method shown. Some results given as binding are weak or reduced against the parent protein; the word gives no strength.

By UniProt entry, the sequences of proteins in these tests, tags left out.
UniProt Q92993: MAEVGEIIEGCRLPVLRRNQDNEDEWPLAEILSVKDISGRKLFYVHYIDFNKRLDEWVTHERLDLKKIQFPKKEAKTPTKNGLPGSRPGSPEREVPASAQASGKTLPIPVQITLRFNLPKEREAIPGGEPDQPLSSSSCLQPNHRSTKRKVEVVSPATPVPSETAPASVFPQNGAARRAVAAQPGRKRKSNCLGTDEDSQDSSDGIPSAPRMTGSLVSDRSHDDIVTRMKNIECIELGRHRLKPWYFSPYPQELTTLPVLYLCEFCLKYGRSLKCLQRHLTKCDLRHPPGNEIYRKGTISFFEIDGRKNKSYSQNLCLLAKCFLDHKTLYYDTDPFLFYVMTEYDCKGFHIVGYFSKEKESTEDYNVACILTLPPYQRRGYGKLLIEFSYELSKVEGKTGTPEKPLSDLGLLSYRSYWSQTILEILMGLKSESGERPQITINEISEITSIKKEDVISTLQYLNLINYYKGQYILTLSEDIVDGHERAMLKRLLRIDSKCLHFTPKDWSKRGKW

Target: TIP60 (Tat Interactive Protein, 60 kDa) (Homo sapiens, UniProt Q92993)
Test: double-hybrid (two-hybrid) technique

binding: binds
B1: ICBP90 (Inverted CCAAT Box Binding Protein of 90 kDa) (protein)
chain: MWIQVRTMDGRQTHTVDSLSRLTKVEELRRKIQELFHVEPGLQRLFYRGKQMEDGHTLFDYEVRLNDTIQLLVRQSLVLPHSTKERDSELSDTDSGCCLGQSESDKSSTHGEAAAETDSRPADEDMWDETELGLYKVNEYVDARDTNMGAWFEAQVVRVTRKAPSRDEPCSSTSRPALEEDVIYHVKYDDYPENGVVQMNSRDVRARARTIIKWQDLEVGQVVMLNYNPDNPKERGFWYDAEISRKRETRTARELYANVVLGDDSLNDCRIIFVDEVFKIERPGEGSPMVDNPMRRKSGPSCKHCKDDVNRLCRVCACHLCGGRQDPDKQLMCDECDMAFHIYCLDPPLSSVPSEDEWYCPECRNDASEVVLAGERLRESKKNAKMASATSSSQRDWGKGMACVGRTKECTIVPSNHYGPIPGIPVGTMWRFRVQVSESGVHRPHVAGIHGRSNDGSYSLVLAGGYEDDVDHGNFFTYTGSGGRDLSGNKRTAEQSCDQKLTNTNRALALNCFAPINDQEGAEAKDWRSGKPVRVVRNVKGGKNSKYAPAEGNRYDGIYKVVKYWPEKGKSGFLVWRYLLRRDDDEPGPWTKEGKDRIKKLGLTMQYPEGYLEALANREREKENSKREEEEQQEGGFASPRTGKGKWKRKSAGGGPSRAGSPRRTSKKTKVEPYSLTAQQSSLIREDKSNAKLWNEVLASLKDRPASGSPFQLFLSKVEETFQCICCQELVFRPITTVCQHNVCKDCLDRSFRAQVFSCPACRYDLGRSYAMQVNQPLQTVLNQLFPGYGNGR
